In PubChem BioAssay AID540276 (National Center for Advancing Translational Sciences (NCATS), 2011):
In all, about 300,000 compounds went through this assay and about 5,400 (1.8%) were called active. This list was built around the results that the source calls inconclusive (neither active nor inactive); the mix of calls is not that of the screen. The call rests on the fitted dose curve; tested in HEK293 cells. Where the call is inconclusive, the potency comes from a doubtful curve fit.

Assay: qHTS for inhibitors of binding or entry into cells for Marburg Virus
Conditions: Marburg virus pseudotyped entry inhibition, cell reporter; activity change, negative = inhibition: at 37.8 µM (top of the series) unless noted
On the % scale 0 is the no-effect control and ±100 the full control effect; potency means the concentration at half of the fitted maximal effect.

**Q.** For Cc1ccc([N+](=O)[O-])cc1N=C(c1cccc(Br)c1)N1CCOCC1, which Potency is on record?
**A.** inconclusive: 31.6 µM [inhibitor, single point]

**Q.** With Cc1ccc(CSc2oc(-c3ccco3)nc2S(=O)(=O)c2ccc(Br)cc2)cc1 as the compound, how does the Potency read?
**A.** inactive

**Q.** With CCCC(C(=O)O)N1C(=O)/C(=C2\C(=O)N(C)c3ccccc32)SC1=S (centres undefined) as the compound, how does the Potency read?
**A.** inactive

**Q.** With O=C(Nc1ccccc1-c1nc2ccccc2[nH]1)c1ccc(N2C(=O)CCC2=O)cc1 as the compound, how does the Potency read?
**A.** inconclusive: 17.8 µM [inhibitor, single point]

**Q.** Which Potency does the source give for CC(=O)c1ccc(N2CCN(c3ncccn3)CC2)cc1 here?
**A.** inactive

**Q.** With CCN1C(=O)[C@H]2[C@H]3[C@H](O)[C@H](O)C/C(=N/OC[C@@H](C)[C@H](OCc4ccccc4)C(C)C)[C@@H]3CC[C@@H]2C1=O as the compound, how does the Potency read?
**A.** inactive

**Q.** For CCOc1ccc(S(=O)(=O)N2CCN(C(=O)CCOc3ccccc3C)CC2)cc1, which Potency is on record?
**A.** inconclusive: 4.47 µM [activator, single point]

**Q.** Which Potency does the source give for O=C(O)[C@H](CSCc1ccccc1)NS(=O)(=O)c1ccc(F)cc1 here?
**A.** inconclusive: 1.41 µM [activator, full curve, poor fit]

**Q.** Which Potency does the source give for COc1ccccc1/C=C/C=C1\Oc2c(ccc(O)c2CN2CCN(CCO)CC2)C1=O here?
**A.** inactive

**Q.** Which Potency does the source give for COc1ccc(CCNC2CC(=O)N(CCc3ccc(OC)c(OC)c3)C2=O)cc1 (centres undefined) here?
**A.** inactive

**Q.** With Cc1ccc(NC(=O)CN(C)C(=O)c2cc3ccccc3o2)cc1 as the compound, how does the Potency read?
**A.** inactive

**Q.** Which Potency does the source give for CCOc1ccccc1Nc1nc(N)nc(Cl)c1CC here?
**A.** inconclusive: 6.31 µM [inhibitor, partial curve, poor fit]

**Q.** For Nc1c(C2CCCCC2)c(=O)on1C(=O)c1ccccc1, which Potency is on record?
**A.** inconclusive: 0.631 µM [inhibitor, full curve, poor fit]

**Q.** For COc1ccc(N2CCN(C(=O)c3ccccc3NS(=O)(=O)c3ccccc3)CC2)cc1, which Potency is on record?
**A.** inactive

**Q.** With COc1cc(NC(=O)c2ccco2)c(OC)cc1NC(=O)CCC(=O)Nc1cc(C)ccc1C as the compound, how does the Potency read?
**A.** inconclusive: 0.073 µM [inhibitor, full curve, poor fit]

**Q.** Which Potency does the source give for CC(=O)CC(c1ccccc1[N+](=O)[O-])c1c(O)c2ccccc2oc1=O (centres undefined) here?
**A.** inactive

**Q.** Which Potency does the source give for CCOC(=O)c1cccc(NC(=O)CCS(=O)(=O)c2cccs2)c1 here?
**A.** inconclusive: 6.51 µM [activator, partial curve]

**Q.** With O=C(Cn1nnc(-c2ccccc2)n1)N/N=C/c1ccco1 as the compound, how does the Potency read?
**A.** inconclusive: 5.62 µM [activator, partial curve, poor fit]

**Q.** With COc1ccc(C)cc1S(=O)(=O)NCC(c1ccco1)N1CCc2ccccc2C1 (centres undefined) as the compound, how does the Potency read?
**A.** inactive

**Q.** Which Potency does the source give for CCn1c(SCC(=O)N2CCCc3ccccc32)nc2ccccc2c1=O here?
**A.** inconclusive: 29.1 µM [inhibitor, single point]

**Q.** With Cc1cccc(/C=C/C(=O)c2ccc(N3CCOCC3)cc2)c1 as the compound, how does the Potency read?
**A.** inactive

**Q.** For Cc1ccc(C)c(N2CCN(C(=O)c3ccc(CS(=O)Cc4ccc(Cl)cc4)o3)CC2)c1 (centres undefined), which Potency is on record?
**A.** inconclusive: 22.4 µM [inhibitor, single point]

**Q.** Which Potency does the source give for CCCCCCCCc1nnc(N)s1 here?
**A.** inconclusive: 3.16 µM [inhibitor, partial curve, poor fit]

**Q.** With CCOCCCNC(=O)c1cc2c(=O)n3ccccc3nc2s1 as the compound, how does the Potency read?
**A.** inconclusive: 11.2 µM [activator, partial curve, poor fit]

**Q.** Which Potency does the source give for O=C(NC(C(=O)c1ccccc1)N1CCOCC1)c1ccccc1 (centres undefined) here?
**A.** inactive

**Q.** Which Potency does the source give for Cc1nn(Cc2ccccc2Cl)c(C)c1NC(=O)c1nc2ncccn2n1 here?
**A.** inactive

**Q.** For C/C(N)=C(/C#N)C(=O)CSc1nnc(-c2ccc3c(c2)OCO3)o1, which Potency is on record?
**A.** inconclusive: 4.61 µM [inhibitor, partial curve, poor fit]

**Q.** With CCOC(=O)N1CCN(C(=O)C(=O)NN)CC1 as the compound, how does the Potency read?
**A.** inconclusive: 4.47 µM [activator, single point]

**Q.** With CC1(C)C(=O)Nc2ccccc2N1C(=O)CSc1nc(-c2ccccc2)cs1 as the compound, how does the Potency read?
**A.** inconclusive: 0.447 µM [inhibitor, full curve, poor fit]

**Q.** For CC1CCCCN1C(=O)CSc1nnc(-c2cccs2)o1 (centres undefined), which Potency is on record?
**A.** inconclusive: 3.55 µM [activator, partial curve, poor fit]

**Q.** For COCCC(=O)N1CCC(Oc2ccc(C(=O)NCCCC3CCCC3)cc2)CC1, which Potency is on record?
**A.** inactive

**Q.** With NC(=O)c1ccc(OCC(F)(F)C(F)(F)C(F)(F)C(F)(F)C(F)(F)C(F)F)cc1 as the compound, how does the Potency read?
**A.** inactive

**Q.** For c1ccc2[nH]c(SCc3ccc(-c4nnco4)cc3)nc2c1, which Potency is on record?
**A.** inconclusive: 3.98 µM [activator, partial curve, poor fit]

**Q.** With O=C(COC(=O)COc1ccc(Br)cc1)NCC1CCCO1 (centres undefined) as the compound, how does the Potency read?
**A.** inconclusive: 1.12 µM [inhibitor, single point]

**Q.** With CCOc1cc(C2C(C#N)=C(N)OC3CCCC(=O)C32)ccc1OCCN1CCOCC1 (centres undefined) as the compound, how does the Potency read?
**A.** inconclusive: 0.447 µM [inhibitor, partial curve, poor fit]

**Q.** For COc1ccc(NC(=O)C2(c3ccccc3)CCCC2)cc1, which Potency is on record?
**A.** inconclusive: 10 µM [inhibitor, partial curve, poor fit]

**Q.** With CCc1nnc(NC(=O)CSc2nnc(CNC(=O)c3ccccc3F)n2C)s1 as the compound, how does the Potency read?
**A.** inactive

**Q.** Which Potency does the source give for c1ccc(-c2oc3ncnc(NCCN4CCOCC4)c3c2-c2ccccc2)cc1 here?
**A.** inconclusive: 0.184 µM [inhibitor, full curve, poor fit]

**Q.** Which Potency does the source give for CCNc1nc(C(=O)O)nc(N2CCOCC2)n1 here?
**A.** inactive

**Q.** With O=C(Nc1ccc(-c2nc3ccccc3[nH]2)cc1)C1CCCO1 (centres undefined) as the compound, how does the Potency read?
**A.** inconclusive: 6.51 µM [inhibitor, full curve, poor fit]

**Q.** Which Potency does the source give for O=C(CCCOc1ccc(Cl)cc1Cl)NCCCO here?
**A.** inactive

**Q.** For O=C(CCCc1ccccc1)N1CCc2ccccc21, which Potency is on record?
**A.** inconclusive: 20.6 µM [inhibitor, single point]

**Q.** With C/C(=N\NC(=O)c1ccc(O)cc1)c1ccc2c(c1)Nc1ccccc1S2 as the compound, how does the Potency read?
**A.** inconclusive: 20 µM [inhibitor, partial curve, poor fit]

**Q.** Which Potency does the source give for O=C(Nc1ccccc1N1CCCC1)c1cccnc1 here?
**A.** inactive

**Q.** For Cc1ccccc1C(=O)N1CCc2cc(-c3csc(NC(=O)CN4CCCC4)n3)ccc21, which Potency is on record?
**A.** inconclusive: 35.5 µM [inhibitor, single point]

**Q.** Which Potency does the source give for COc1ccc(-c2noc(CSc3nnc(-c4ccccc4)n3-c3ccc(F)cc3)n2)c(OC)c1 here?
**A.** inconclusive: 12.6 µM [inhibitor, single point]

**Q.** Which Potency does the source give for C[C@@H]1CC[C@H]2C(=O)N(Cc3cccc([N+](=O)[O-])c3)C[C@H](O)CN2[C@@H]1c1ccc(Br)cc1 here?
**A.** inconclusive: 5.96 µM [activator, single point]

**Q.** For Cc1cc2nc(SCCN3CCOCC3)[nH]c2cc1C, which Potency is on record?
**A.** inconclusive: 1.26 µM [activator, single point]

**Q.** Which Potency does the source give for CCOc1cc(C2NC(=O)N(C)C(C)=C2C(=O)OC)cc(Br)c1O (centres undefined) here?
**A.** inactive

**Q.** With COc1ccc(-c2cc(OC(=O)c3ccc(F)cc3)c3c(C)oc(C)c3c(=O)c2)cc1OC as the compound, how does the activity change, negative = inhibition read?
**A.** inconclusive: 15.4% [activator] [at 46.1 µM]

**Q.** With O=C(NCc1cccs1)C1CCC(CNS(=O)(=O)c2ccccc2)CC1 (centres undefined) as the compound, how does the Potency read?
**A.** inactive

**Q.** Which Potency does the source give for C=CCOc1ccc(C2NC(=S)NC(c3ccccc3)=C2C(C)=O)cc1OC (centres undefined) here?
**A.** inactive

**Q.** With CC(C)CCn1c(CN(C)Cc2ccccc2)nc2c1c(=O)n(C)c(=O)n2C as the compound, how does the Potency read?
**A.** inconclusive: 9.2 µM [inhibitor, partial curve, poor fit]

**Q.** Which Potency does the source give for CC(=O)Nc1ccc(NC(=O)CCn2nnc3ccccc32)cc1 here?
**A.** inactive

**Q.** For O=C(CNC(=O)c1cccs1)OCc1c(F)cccc1Cl, which Potency is on record?
**A.** inactive

**Q.** Which Potency does the source give for Cc1ccc([N+](=O)[O-])cc1-c1ccc(/C=C(\C#N)c2[nH]nc(N)c2C#N)o1 here?
**A.** inconclusive: 29.1 µM [inhibitor, single point]

**Q.** Which Potency does the source give for Cc1nn(CC(=O)NCc2ccccc2Cl)c(=O)c2cccn12 here?
**A.** inactive

**Q.** For CC(C)Oc1ccc(/C(O)=C2/C(=O)C(=O)N(CCN3CCOCC3)C2c2ccccc2)cc1 (centres undefined), which Potency is on record?
**A.** inconclusive: 14.1 µM [activator, single point]

**Q.** Which Potency does the source give for Nn1cnnc1N/N=C/c1cccc(Cl)c1Cl here?
**A.** inconclusive: 31.6 µM [inhibitor, single point]

**Q.** For O=C(COC(=O)CC(c1ccccc1)c1ccccc1)NCc1ccc(Cl)cc1, which Potency is on record?
**A.** inconclusive: 2.91 µM [inhibitor, partial curve, poor fit]

**Q.** For O=C(CCN1CCCCCC1)Nc1ccc(F)c(F)c1, which Potency is on record?
**A.** inconclusive: 16.4 µM [inhibitor, single point]

**Q.** Which Potency does the source give for O=C1C2C3CC(C(Br)C3Br)C2C(=O)N1CC1CCCO1 (centres undefined) here?
**A.** inconclusive: 1.26 µM [inhibitor, single point]

**Q.** Which Potency does the source give for CC(=O)c1c(N2CCN(c3ccc(F)cc3)CC2)nc(=S)n(Cc2ccccc2)c1C here?
**A.** inconclusive: 35.5 µM [inhibitor, single point]

**Q.** For CCC(CC)C(=O)Nc1ccc(C(=O)Nc2cc(C)on2)cc1, which Potency is on record?
**A.** inactive

**Q.** With O=C(N/N=C/c1ccc(OC(=O)c2cccc(Br)c2)cc1)c1cccnc1 as the compound, how does the Potency read?
**A.** inconclusive: 7.08 µM [activator, partial curve, poor fit]

**Q.** Which Potency does the source give for COCC(=O)N(Cc1nc2sc(C)c(C)c2c(=O)[nH]1)C1CCCCC1 here?
**A.** inconclusive: 1.78 µM [activator, partial curve, poor fit]

**Q.** For O=C(OC(c1ccccc1)c1nccc2ccccc12)c1cc([N+](=O)[O-])cc([N+](=O)[O-])c1 (centres undefined), which Potency is on record?
**A.** inconclusive: 20 µM [inhibitor, single point]

**Q.** With O=CN1CCN(C(=O)c2ccc(-c3nc4ccccc4s3)s2)CC1 as the compound, how does the Potency read?
**A.** inconclusive: 23.1 µM [inhibitor, single point]

**Q.** For CCOC(=O)c1sc2nc(C)nc(NC3CCC(O)CC3)c2c1C (centres undefined), which Potency is on record?
**A.** inconclusive: 7.08 µM [activator, partial curve, poor fit]
